Laboratory results as given in PubChem BioAssay AID330 (DTP/NCI, 2004).
The list is a part of this screen's results and no random one: it gathers tests that were run many times, whatever their T/C, doses with no T/C, and many T/C values between a quarter and a half above the control. Further doses and runs are listed elsewhere. T/C is the treated group as % of the vehicle group. Some doses have a count of surviving animals in place of a T/C: the source holds a T/C of zero for them, seemingly a mark for toxic or unscored doses. Some doses without a T/C left all or most animals alive at the check, yet need not have been tolerated: survival well below the control is almost never listed, so the zero probably covers shortened survival too. Counts of survivors are from the toxicity check (mostly the fifth day) where no day follows; animals may have died later. Schedule codes are those of the source, read here as Q, the interval in days (D) or hours (H), X, the number of doses. Some doses were run more than once; the values are given in rising order. For survival time, this PubChem deposit counts one and a half times the control or more as active, and values a quarter to a half above the control carry no call in these data; other NCI protocols may use other cut-offs. Some T/C values carry the count of animals alive at the toxicity check (mostly the fifth day); where none is given, no animal had died by that day. Counts like (3×) count equal records among those shown.

Test system: P388 leukemia ip, CD2F1 mice, survival T/C
Test: NCI In Vivo Anticancer Drug Screen. Data for tumor model P388 Leukemia (intraperitoneal) in CD2F1 (CDF1) mice
Details: T/C endpoint: median survival time, higher T/C = longer survival
[1] = dose: 100.0 mg/kg/injection, schedule: Q01DX005 (ip), vehicle: saline
[2] = dose: 200.0 mg/kg/injection, schedule: Q01DX005 (ip), vehicle: saline
[3] = dose: 200.0 mg/kg/injection, schedule: Q01DX009 (ip), vehicle: Klucel (hydroxypropylcellulose) (HPC)
[4] = dose: 200.0 mg/kg/injection, schedule: Q01DX009 (ip), vehicle: saline with Tween-80
[5] = dose: 25.0 mg/kg/injection, schedule: Q01DX009 (ip), vehicle: saline with Tween-80
[6] = dose: 200.0 mg/kg/injection, schedule: Q01DX005 (ip), vehicle: saline with Tween-80
[7] = dose: 1111.11 mg/kg/injection, schedule: Q01DX005 (ip), vehicle: saline with Tween-80
[8] = dose: 100.0 mg/kg/injection, schedule: Q01DX009 (ip), vehicle: saline

CN(CCOS(C)(=O)=O)CCOS(C)(=O)=O
T/C (dose: 0.99 mg/kg/injection, schedule: Q04DX003 (ip), vehicle: saline): 131 % of control | survivor count (dose: 1.5 mg/kg/injection, schedule: Q04DX003 (ip), vehicle: saline): 6 of 6 | survivor count (dose: 2.25 mg/kg/injection, schedule: Q04DX003 (ip), vehicle: saline): 6 of 6

COc1cc(NCC(O)CN(CC(C)C)C2CCCC2)c2ncccc2c1 (stereo not drawn)
survivor count (dose: 50.0 mg/kg/injection, schedule: Q01DX005 (ip), vehicle: saline): 1 of 4 and 2 of 5 | survivor count [1]: 0 of 5 | survivor count [2]: 0 of 5

CCC12NC(=O)NC1(C)NC(=O)N2 (stereo not drawn)
survivor count (dose: 37.5 mg/kg/injection, schedule: Q01DX009 (ip), vehicle: saline with Tween-80): 3 of 6

C/C(=N\Nc1cc(C)nc2ccc(C)cc12)c1cn(C)n(-c2ccccc2)c1=O
survivor count [3]: 6 of 6

O=C(c1ncccc1O)N1CCCCC1
survivor count (dose: 25.0 mg/kg/injection, schedule: Q01DX009 (ip), vehicle: distilled water + Tween-80): 6 of 6

CCc1ccc(C(C)(C)C)cc1
T/C [4]: 127 % of control | survivor count [4]: 6 of 6 | survivor count (dose: 300.0 mg/kg/injection, schedule: Q01DX009 (ip), vehicle: saline with Tween-80): 0 of 6

BrC[P+](CBr)(CBr)CBr
T/C (dose: 12.5 mg/kg/injection, schedule: Q01DX009 (ip), vehicle: saline with Tween-80): 143 % of control | T/C [5]: 142 % of control | T/C (dose: 100.0 mg/kg/injection, schedule: Q01DX005 (ip), vehicle: saline with Tween-80): 130 % of control | T/C (dose: 144.0 mg/kg/injection, schedule: Q01DX005 (ip), vehicle: saline with Tween-80): 128 and 130 % of control | T/C [6]: 142 and 144 % of control | T/C (dose: 240.0 mg/kg/injection, schedule: Q01DX005 (ip), vehicle: saline with Tween-80): 125 and 133 % of control | T/C (dose: 400.0 mg/kg/injection, schedule: Q01DX005 (ip), vehicle: saline with Tween-80): 144 (2×), 150, 152 % of control [4 of 6 alive] | T/C (dose: 666.6 mg/kg/injection, schedule: Q01DX005 (ip), vehicle: saline with Tween-80): 139 % of control | survivor count (dose: 666.67 mg/kg/injection, schedule: Q01DX005 (ip), vehicle: saline with Tween-80): 0 of 6 | survivor count (dose: 800.0 mg/kg/injection, schedule: Q01DX005 (ip), vehicle: saline with Tween-80): 0 of 6 | T/C [7]: 148 % of control [4 of 6 alive] | survivor count [7]: 0 of 6

CN(C)CCC(=O)c1ccc(Cl)c(Cl)c1
survivor count [3]: 1 of 6

O=NNc1nc(-c2ccccn2)nc2ccccc12
survivor count (dose: 50.0 mg/kg/injection, schedule: Q01DX009 (ip), vehicle: DMSO): 6 of 6

CCCCCCCCCCCCCCCCCCOP(=O)(CC(=O)NCc1cc(C(C)(C)C)c(O)c(C(C)(C)C)c1)OCCCCCCCCCCCCCCCCCC
survivor count (dose: 50.0 mg/kg/injection, schedule: Q04DX003 (ip), vehicle: saline with Tween-80): 4 of 6

C(#Cc1ccncc1)c1ccncc1
survivor count [6]: 4 of 6

Cc1ccccc1N(CC1CO1)CC1CO1 (stereo not drawn)
T/C (dose: 50.0 mg/kg/injection, schedule: Q01DX009 (ip), vehicle: acetone): 140 % of control | T/C (dose: 50.0 mg/kg/injection, schedule: Q01DX009 (ip), vehicle: saline): 128 % of control [5 of 6 alive] | T/C [8]: 146 % of control | T/C (dose: 200.0 mg/kg/injection, schedule: Q01DX009 (ip), vehicle: acetone): 137 % of control

Nc1ncnc2c1ncn2C1OC(CO)C(O)C1O (stereo not drawn)
T/C (dose: 5.0 mg/kg/injection, schedule: Q03HX016 (ip), vehicle: saline, evaluated on day 5): 128 % of control | T/C (dose: 5.0 mg/kg/injection, schedule: Q03HX016 (ip), vehicle: saline, evaluated on day 60): 128 % of control | survivor count (dose: 10.0 mg/kg/injection, schedule: Q01DX009 (ip), vehicle: saline): 6 of 6 | T/C (dose: 10.0 mg/kg/injection, schedule: Q03HX016 (ip), vehicle: saline, evaluated on day 5): 134 % of control [6 of 7 alive] | T/C (dose: 10.0 mg/kg/injection, schedule: Q03HX016 (ip), vehicle: saline, evaluated on day 60): 134 % of control [7 of 8 alive] | T/C (dose: 12.5 mg/kg/injection, schedule: Q01DX009 (ip), vehicle: saline, evaluated on day 5): 128 % of control | T/C (dose: 12.5 mg/kg/injection, schedule: Q01DX009 (ip), vehicle: saline, evaluated on day 60): 128 % of control | survivor count (dose: 20.0 mg/kg/injection, schedule: Q03HX016 (ip), vehicle: saline): 8 of 8 | T/C (dose: 22.0 mg/kg/injection, schedule: Q01DX009 (ip), vehicle: saline with Tween-80): 127 % of control | T/C (dose: 25.0 mg/kg/injection, schedule: Q01DX009 (ip), vehicle: saline sonified): 133 % of control | T/C [5]: 131 % of control | T/C (dose: 25.0 mg/kg/injection, schedule: Q01DX009 (ip), vehicle: saline, evaluated on day 5): 128 % of control | T/C (dose: 25.0 mg/kg/injection, schedule: Q01DX009 (ip), vehicle: saline, evaluated on day 60): 128 % of control | T/C (dose: 33.0 mg/kg/injection, schedule: Q01DX009 (ip), vehicle: saline with Tween-80): 132 % of control | survivor count (dose: 40.0 mg/kg/injection, schedule: Q03HX016 (ip), vehicle: saline): 0 of 8 | T/C (dose: 50.0 mg/kg/injection, schedule: Q01DX009 (ip), vehicle: saline with Tween-80, evaluated on day 5): 127 % of control | T/C (dose: 50.0 mg/kg/injection, schedule: Q01DX009 (ip), vehicle: saline with Tween-80, evaluated on day 20): 140 % of control | T/C (dose: 50.0 mg/kg/injection, schedule: Q01DX009 (ip), vehicle: saline, evaluated on day 5): 131 % of control | T/C (dose: 50.0 mg/kg/injection, schedule: Q01DX009 (ip), vehicle: saline, evaluated on day 60): 131 % of control | T/C (dose: 50.0 mg/kg/injection, schedule: Q03HX016 (ip), vehicle: Klucel (hydroxypropylcellulose) (HPC)): 139 % of control | T/C (dose: 80.0 mg/kg/injection, schedule: Q01DX009 (ip), vehicle: saline): 133 % of control | survivor count (dose: 80.0 mg/kg/injection, schedule: Q03HX016 (ip), vehicle: saline): 0 of 8 | survivor count [8]: 7 of 8 | T/C (dose: 100.0 mg/kg/injection, schedule: Q03HX016 (ip), vehicle: Klucel (hydroxypropylcellulose) (HPC)): 130 % of control | survivor count (dose: 100.0 mg/kg/injection, schedule: Q04DX003 (ip), vehicle: saline sonified): 5 of 6 | T/C (dose: 150.0 mg/kg/injection, schedule: Q01DX009 (ip), vehicle: saline sonified): 131 % of control | T/C (dose: 160.0 mg/kg/injection, schedule: Q01DX009 (ip), vehicle: saline): 125 and 137 % of control | T/C (dose: 177.0 mg/kg/injection, schedule: Q01DX009 (ip), vehicle: saline with Tween-80): 126 % of control | T/C (dose: 200.0 mg/kg/injection, schedule: Q01DX009 (ip), vehicle: saline): 127 % of control | T/C (dose: 300.0 mg/kg/injection, schedule: Q01DX009 (ip), vehicle: saline sonified): 136 % of control | T/C (dose: 320.0 mg/kg/injection, schedule: Q01DX009 (ip), vehicle: saline): 145 % of control | T/C (dose: 400.0 mg/kg/injection, schedule: Q01DX009 (ip), vehicle: saline with Tween-80): 125 % of control | T/C (dose: 400.0 mg/kg/injection, schedule: Q04DX003 (ip), vehicle: saline sonified): 130 % of control | T/C (dose: 600.0 mg/kg/injection, schedule: Q01DX009 (ip), vehicle: saline with Tween-80): 133 % of control | T/C (dose: 600.0 mg/kg/injection, schedule: Q04DX003 (ip), vehicle: saline with Tween-80): 126 % of control | survivor count (dose: 1200.0 mg/kg/injection, schedule: Q01DX009 (ip), vehicle: saline sonified): 5 of 6

Clc1ccc(CBr)c2ccccc12
survivor count (dose: 50.0 mg/kg/injection, schedule: Q01DX009 (ip), vehicle: saline with Tween-80): 6 of 6 | survivor count (dose: 100.0 mg/kg/injection, schedule: Q01DX009 (ip), vehicle: saline with Tween-80): 0 of 6 | survivor count [4]: 0 of 6

CCCC(O)(CCC)C1=NCCN1
survivor count [1]: 0 of 6 | survivor count [2]: 0 of 6
